Assay results: PMC10674233, “Design, Synthesis, In Vitro, and In Silico Studies of New N^5-Substituted-pyrazolo[3,4-d]pyrimidinone Derivatives as Anticancer CDK2 Inhibitors” (Pharmaceuticals, 2023)

Tests used:
Format in all cases: cell-based
[1] = system: normal human fibroblast cell line (WI-38); test: MTT cytotoxicity assay, normal human fibroblast cell line WI-38; conditions: WI-38, read-out: IC50 ± SD WI-38
HCT116 cells = test: MTT antiproliferative assay, HCT116 cells; conditions: Homo sapiens, HCT-116, read-out: IC50 ± SD HCT116
HepG2 cells = test: MTT antiproliferative assay, HepG2 cells; conditions: Homo sapiens, HepG2, read-out: IC50 ± SD HepG2

CC[C@H](CO)Nc1nc(NCc2ccccc2)c2ncn(C(C)C)c2n1 [Roscovitine, reference compound]
IC50 [1]: 17.3 µM
IC50 (HCT116 cells): 12.2 ± 1.17 µM
IC50 (HepG2 cells): 13.8 ± 1.15 µM
